Data as given in PubChem BioAssay AID1259308 (NCATS, 2017).

- Test: 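Genes whose loss raises luciferase production in HEK293 cells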 (primary screen)
- Cell system: human HEK293 embryonic kidney cells stably expressing firefly luciferase (HEK-CMV-Luc2-Hygro)
- Reagent: single siRNA against human genes, 0.8 pmol siRNA per well
- Timing: 72 h
- Measurement: 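Reporter luminescence and viable-cell signal on separate replicate plates, given as percent of non-targeting control and median/MAD z-scores, plus per-cell luciferase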
- Scale: total luciferase, z-score and total luciferase, % of control: higher = more reporter protein produced; luciferase per cell, z-score: higher = more reporter output per viable cell; viable cells, % of control: higher = more viable cells
- Call rule: 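An siRNA counts as active if its total luciferase robust z-score exceeds 3; genes with two or more such siRNAs out of three were retested with fresh siRNAs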
- Meaning of the calls: active = raised luciferase; inactive = no rise
The deposit covers about 59,000 reagents; shown is a part drawn at random. Over the whole deposit, about 1,510 (2.6%) were called active. 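Calls use total luciferase alone and ignore viability, so some active siRNAs may act by altering cell number.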 Entries without a mark were called inactive. The numbers tell different reagents against one gene apart. Reagent sequences are not shown.

gene knocked down	reagent no.	total luciferase, z-score	total luciferase, % of control	luciferase per cell, z-score	viable cells, % of control
PLEK (pleckstrin)	1	-0.458	72.8	-0.734	98.7
PLEK (pleckstrin)	2	3.88 (active)	159	3.15	77.6
PLEK (pleckstrin)	3	-0.519	71.6	-0.722	96.7
NUP35 (nucleoporin 35)	1	0.373	89.3	0.208	94.5
NUP35 (nucleoporin 35)	2	-0.423	73.5	-0.0262	82.7
NUP35 (nucleoporin 35)	3	-0.843	65.1	-0.371	80.2
EXOC5P1 (exocyst complex component 5 pseudogene 1)	1	0.76	97	1.44	74.2
EXOC5P1 (exocyst complex component 5 pseudogene 1)	2	-0.199	77.9	-0.0616	88.5
EXOC5P1 (exocyst complex component 5 pseudogene 1)	3	-2.21	38	-1.78	67.8
CCDC102A (coiled-coil domain containing 102A)	1	0.747	96.7	0.392	97.5
CCDC102A (coiled-coil domain containing 102A)	2	-0.753	66.9	-0.742	90.9
CCDC102A (coiled-coil domain containing 102A)	3	-0.3	75.9	-0.629	100
CATSPERE (catsper channel auxiliary subunit epsilon)	1	-0.184	78.2	-0.346	95.7
CATSPERE (catsper channel auxiliary subunit epsilon)	2	-0.00287	81.8	-0.265	98.1
CATSPERE (catsper channel auxiliary subunit epsilon)	3	-0.664	68.7	-0.123	79.3
GTF2F2P2 (general transcription factor IIF subunit 2 pseudogene 2)	1	-1.98	42.4	0.126	45.9
GTF2F2P2 (general transcription factor IIF subunit 2 pseudogene 2)	2	-0.789	66.2	-0.0181	74.3
GTF2F2P2 (general transcription factor IIF subunit 2 pseudogene 2)	3	-0.409	73.7	0.133	79.6
AKR1C6P (aldo-keto reductase family 1 member C6, pseudogene)	1	-0.281	76.3	-0.466	96.4
AKR1C6P (aldo-keto reductase family 1 member C6, pseudogene)	2	-0.166	78.6	-0.409	97.8
AKR1C6P (aldo-keto reductase family 1 member C6, pseudogene)	3	-0.787	66.2	-0.348	81.1
PDZD4 (PDZ domain containing 4)	1	1.17	105	2.87	55.2
PDZD4 (PDZ domain containing 4)	2	0.166	85.2	0.739	78.4
PDZD4 (PDZ domain containing 4)	3	-0.328	75.4	-0.017	84.6
GRAP2 (GRB2 related adaptor protein 2)	1	0.761	97	0.415	97.2
GRAP2 (GRB2 related adaptor protein 2)	2	0.409	90	0.189	95.7
GRAP2 (GRB2 related adaptor protein 2)	3	-0.678	68.4	-0.371	84.3
SYT3 (synaptotagmin 3)	1	-0.174	78.4	-0.188	92.1
SYT3 (synaptotagmin 3)	2	1.66	115	1.98	76.2
SYT3 (synaptotagmin 3)	3	-0.188	78.1	-0.178	91.5
ADAMTSL1 (ADAMTS like 1)	1	0.322	88.3	1.21	71.7
ADAMTSL1 (ADAMTS like 1)	2	-1.01	61.9	-0.053	70.1
ADAMTSL1 (ADAMTS like 1)	3	-0.612	69.7	-0.741	94.7
ADAMTSL1 (ADAMTS like 1)	4	-0.456	72.8	-0.805	101
ADAMTSL1 (ADAMTS like 1)	5	-1.24	57.2	-0.536	73.6
ADAMTSL1 (ADAMTS like 1)	6	0.427	90.4	0.109	98.1
ABTB2 (ankyrin repeat and BTB domain containing 2)	1	-0.733	67.3	-1.58	114
ABTB2 (ankyrin repeat and BTB domain containing 2)	2	0.0743	83.4	-0.302	101
ABTB2 (ankyrin repeat and BTB domain containing 2)	3	0.0454	82.8	0.828	74.4
LIF (LIF interleukin 6 family cytokine)	1	-1.9	44.2	-1.66	76.5
LIF (LIF interleukin 6 family cytokine)	2	1.35	109	1.4	84
LIF (LIF interleukin 6 family cytokine)	3	-0.0245	81.4	-0.55	105
TSPAN14 (tetraspanin 14)	1	6.03 (active)	202	3.59	87.7
TSPAN14 (tetraspanin 14)	2	-2.32	35.7	-3.44	98.9
TSPAN14 (tetraspanin 14)	3	-0.367	74.6	-0.577	97
SEPHS2 (selenophosphate synthetase 2)	1	-1.75	47.1	-1.45	77.1
SEPHS2 (selenophosphate synthetase 2)	2	0.407	90	0.224	94.8
SEPHS2 (selenophosphate synthetase 2)	3	0.747	96.7	0.374	98
TMA16 (translation machinery associated 16 homolog)	1	-1.13	59.4	0.319	61
TMA16 (translation machinery associated 16 homolog)	2	0.273	87.3	0.148	93.8
TMA16 (translation machinery associated 16 homolog)	3	-0.697	68	-0.676	90.8
SLC67A1	1	1.22	106	1.17	87.1
SLC67A1	2	0.0968	83.8	0.45	83.2
SLC67A1	3	3.9 (active)	160	2.64	89
CCDC162P (coiled-coil domain containing 162, pseudogene)	1	0.331	88.5	0.897	78.1
CCDC162P (coiled-coil domain containing 162, pseudogene)	2	0.135	84.6	1.05	71.7
CCDC162P (coiled-coil domain containing 162, pseudogene)	3	-0.75	67	-0.256	80.1
CCDC162P (coiled-coil domain containing 162, pseudogene)	4	2.17	125	3.08	62.2
CCDC162P (coiled-coil domain containing 162, pseudogene)	5	-0.0189	81.5	-0.0672	92.7
CCDC162P (coiled-coil domain containing 162, pseudogene)	6	-0.653	68.9	-1.03	101
